Reference: PubChem BioAssay AID485314 (National Center for Advancing Translational Sciences (NCATS), 2010)
Screen size: about 340,000 compounds; about 4,500 (1.3%) were called active. The inconclusive results got no clear call from the source; some entries with a clear call stand among them for comparison. Calls come from the whole dose curve; as a rule, active = well fitted inhibition curve with a large enough effect; inconclusive = small, poorly fitted or top-dose-only effect, or another doubt; inactive = no such curve, though single readings can be large or run the other way. A potency beside an inconclusive call is a rough fit, not a confirmed value.

Each compound was assayed against DNA polymerase beta (Homo sapiens) (UniProt P06746) (assay: qHTS Assay for Inhibitors of DNA Polymerase Beta). Details: Pol beta primer extension/strand displacement, fluorescence kinetic; activity change, negative = inhibition: at 114 µM (top of the series).
Outline: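 Curves were derived by four-parameter Hill fits of normalized qHTS data. The kinetic fluorescent primer-extension read was taken at 0 and 10 min after 50 nM substrate, following a 15 min room-temperature preincubation of 10 nM enzyme with compounds.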
% is set by controls: 0 for no effect and ±100 for the full control effect; potency is the fitted concentration of half-maximal effect.

Potency, active:
O=[N+]([O-])c1ccc(/C=N/Nc2nc3ccccc3o2)cc1 44.7 µM
CCCCn1c(/C=C/c2ccco2)nc2ccccc21 8.91 µM
COc1cc(/C=N/Nc2ccc(C(=O)O)cc2)ccc1O 25.1 µM
COc1cc(OC)c(-c2c3cc(O)c(=O)cc-3oc3cc(O)c(O)cc23)cc1OC 20 µM
Cc1c(CCC(=O)N2CCC(C(=O)O)CC2)c(=O)oc2cc3oc4c(c3cc12)CCCC4 35.5 µM
COc1ccc2cc(C(=O)Nc3ccccc3)sc(=O)c2c1OC 22.4 µM
O=C(CSCc1c(F)cccc1Cl)NCCSCc1ccco1 25.1 µM
COc1cc(/C=C2/SC(=Nc3ccc(O)cc3)NC2=O)ccc1O 20 µM

Potency, inconclusive:
O=C(Nc1ccccc1Br)C1CC(=O)N(c2ccc3c4c(cccc24)CC3)C1 (stereo not given) 79.4 µM [inhibitor, single point]
O=C(CCn1nnc2ccccc21)Nc1nnc(Cc2ccccc2)s1 14.1 µM [inhibitor, full curve]
CCOC(=O)C1CCN(C(=O)c2ccc(OC3CCN(C(=O)COC)CC3)cc2)CC1 56.2 µM [inhibitor, partial curve, poor fit]
Cc1c(O)cc2c(c1O)C(=O)CC(c1ccccc1)O2 (stereo not given) 31.6 µM [inhibitor, partial curve, poor fit]
CSc1ccc(S(=O)(=O)NCc2ccccc2Cl)cc1 0.141 µM [inhibitor, full curve, poor fit]
CN(c1ccccc1)c1ccc(/C=c2\s/c(=C(/C#N)C(=O)C(C)(C)C)n(Cc3ccco3)c2=O)cc1 3.55 µM [inhibitor, full curve]
COc1cccc(NS(=O)(=O)c2ccc3c(c2)n(C)c(=O)c(=O)n3C)c1 35.5 µM [inhibitor, partial curve, poor fit]
CS(=O)(=O)N1CCCC(C(=O)Nc2ccccc2Cl)C1 (stereo not given) 0.891 µM [inhibitor, full curve, poor fit]
COc1ccc(-c2cnc(C)o2)cc1S(=O)(=O)Nc1ccc(C)c(N(C)C)c1 44.7 µM [inhibitor, partial curve]
Cc1csc(NC(=O)Cc2coc3cc(C)c(C(C)C)cc23)n1 3.16 µM [inhibitor, partial curve, poor fit]
Cc1cc(O)cc2c1C(=O)/C(=C/c1ccco1)O2 25.1 µM [inhibitor, single point]
Cc1ccc(C(=O)NCC(=O)OCC(=O)/C=C2\N(C)c3ccccc3C2(C)C)cc1C 89.1 µM [inhibitor, single point]
CCCn1c(SCC(=O)Nc2c(C)cccc2CC)nnc1C(C)C 31.6 µM [inhibitor, partial curve, poor fit]
C#CCOCCOCCOCCNc1nc(N2CCN(C(=O)[C@H]([C@@H](C)CC)n3cc([C@@H](N)Cc4ccc(O)cc4)nn3)CC2)nc(N2CCN(C(=O)[C@H](Cc3cc4ccccc4[nH]3)n3cc([C@@H](N)C(C)CC)nn3)CC2)n1 (stereo not given in full) 20 µM [inhibitor, single point]
Cc1ccnc(NS(=O)(=O)c2ccc(NC(=O)c3ccc(Br)o3)cc2)n1 25.1 µM [inhibitor, full curve, poor fit]
CCCSCCCNC(=O)Cn1nc(CC)n2c(cc3c(OC)cccc32)c1=O 3.55 µM [inhibitor, single point]
Cc1ccccc1OCCNc1cc(N2CCNCC2)ccc1[N+](=O)[O-] 79.4 µM [inhibitor, single point]
CCc1ccccc1NC(=O)COc1cccc2ccc(C)nc12 5.62 µM [inhibitor, full curve]
CC(C)(C)C(=O)N1CCN(c2ccc(NC(=O)c3ccc([N+](=O)[O-])o3)cc2)CC1 100 µM [inhibitor, single point]
CCOC(=O)C1=C(N)OC2=C(C(=O)CC(C)(C)C2)C1c1ccccc1OCC#N (stereo not given) 89.1 µM [inhibitor, single point]
O=C(O)CCc1ccc(-c2cccs2)n1NC(=O)c1ccc(O)cc1 89.1 µM [inhibitor, single point]
CSc1sc(C(=O)NC(=O)NCc2ccncc2)c(C)c1-c1ccon1 44.7 µM [inhibitor, partial curve]
CN(CC(=O)Nc1ccc(F)cc1F)S(=O)(=O)c1ccc(C(=O)N2CCOCC2)s1 89.1 µM [inhibitor, single point]

Some of these compounds in order of SMILES length, low to high:
Potency, inconclusive:
CSc1ccc(S(=O)(=O)NCc2ccccc2Cl)cc1 0.141 µM [inhibitor, full curve, poor fit]
CCc1ccccc1NC(=O)COc1cccc2ccc(C)nc12 5.62 µM [inhibitor, full curve]
CCOC(=O)C1=C(N)OC2=C(C(=O)CC(C)(C)C2)C1c1ccccc1OCC#N (stereo not given) 89.1 µM [inhibitor, single point]

Next part.

Activity change, negative = inhibition, inactive:
Nc1nonc1C(=O)N/N=C/c1ccc(Br)o1 1.58%
Cn1c(=O)[nH]c2cc(-c3noc(-c4ccc(F)cc4)n3)ccc21 1.52%
COCCNC(=O)Cn1c(=O)n(CCCC(=O)NCc2ccc3c(c2)OCO3)c(=O)c2sccc21 5.27%
CS(=O)(=O)N(CC(=O)N1CCCCCC1)Cc1ccc(Cl)cc1 13.5%
O=C1N=NC2=C1c1c3ccccc3c(O)n1CC2 2.8%
CCCn1c(=O)c2sccc2n2c(CCCC(=O)Nc3cccc(CC)c3)nnc12 14%
CC(=O)Nc1cc(C(=O)NCc2ccc(F)cc2Cl)ccc1Sc1ccc(Cl)cc1 -16.2%
COc1ccccc1NC(=O)Nc1nc(-c2cccnc2)nc2ccccc12 -7.61% [at 57.1 µM]
Cc1ccc(NC(=O)C2(S(=O)(=O)c3ccc(Cl)cc3)CC2)c(Br)c1 -14%
Cc1ccc(C(=O)O)cc1NC(=O)Nc1cccc2ccccc12 41.2%
CC1C(=O)NN=C1C(=O)N/N=C\c1ccc(O)cc1O (stereo not given) 25.2%
COc1ccc(-c2csc(NC(=S)NC(=O)c3cccs3)n2)cc1Br -0.37%
CCCC[n+]1ccn(-c2nc3ccccc3nc2[N-]S(=O)(=O)c2ccc(Br)cc2)c1 -6.72%

Activity change, negative = inhibition, inconclusive:
COCCNc1ccc(-c2nn(C)c(=O)c3ccccc23)cc1[N+](=O)[O-] -31.4% [inhibitor]
